Test: coloration of hair by the coupler in combination with oxidation dye precursors, oxidizing alkaline medium
Parameters: species or system human
Protocol: According to this process, the dyeing composition described above is mixed at the time of use with a sufficient quantity of an oxidizing solution, and the mixture obtained is then applied on the hair.
The oxidizing solution contains oxidizing agents such as hydrogen peroxide, urea peroxide or persalts such as ammonium persulphate. "20 volumes" hydrogen peroxide solution is preferably used.
The mixture obtained is applied on the hair; it is left in place for 10 to 40 minutes, preferably 15 to 30 minutes, after which the hair is rinsed, washed with shampoo, rinsed again and dried.

COc1ccc(N)c(OC)c1N [2,4-diamino-1,3-dimethoxybenzene]
coloration imparted to hair (in combination with p-aminophenols): red colorations | coloration imparted to hair (in combination with p-phenylenediamines): strong blue colorations that are more or less rich in green or purple
